{"source": "patent US20020188022A1", "about": "“Methods for modulation, stimulation, and inhibition of glutamate reuptake” (Annovis. Inc., priority 2000, published 2002)", "system": "T1, Glial Glutamate Transporter (GLAST and GLT1)", "T1 construct": "other: GLT1-specific compounds; Km for displacing [3H]-4MG", "test": "Binding of [3H]-4MG to rat forebrain membrane homogenates in Na+-containing HEPES buffer", "details": "GLT1-specific compounds", "method": "Forebrain tissue from female Sprague Dawley rats was homogenized in HEPES buffer containing Na^+, and membranes were washed twice in the same buffer. Binding experiments were also performed in this buffer. Initial studies determined appropriate parameters for time (15 minutes incubation at 4° C.) and drug concentration (20 nM [^3H]-4MG) to be used in subsequent experiments. Following incubation of [^3H]-4MG with or without other compounds, binding was terminated by rapid filtration through Whatman GF/B filter discs and washing 3 times with buffer using a Brandel cell harvester. Binding was determined by scintillation spectrometry. A full range of association, dissociation, saturation and inhibition studies was performed over varying incubation times (up to 60 min). Data were analysed using computer-assisted curve fitting. Values are expressed as mean of at least triplicate determinations and multiple experiments.\nA full range of association, dissociation, saturation and inhibition studies was performed over varying incubation times (up to 60 min). Data were analysed using computer-assisted curve fitting. Values cited are expressed as mean of at least triplicate determinations and multiple experiments.", "note": "Some results were stated once for a whole list of compounds, not compound by compound. At least one structure is not confirmed: it was looked up by name or label, or the drawing left a doubt. Some compounds share one range, which may span the group rather than tell each member.", "data": [{"compound": "CC(CC(=O)O)C(N)C(=O)O", "note": "(racemic) [3MG, (±)-threo-3-methylglutamate]", "values": [{"measurement": "Part of [3H]-4MG binding displaced", "result": "35-50%"}]}]}
